Article PMC12283572
Results are given in words; binding and its absence hold for the method and conditions named. Binding can be weak; no strength is given. Where a sequence is shown, tags or fusion partners need not be part of it. For some of these results: In cells and extracts the contact can be indirect.

Experiments:
[1] = target: Irgb10 (Yeast Two-Hybrid fusion) (mouse); assay: two-hybrid; S. cerevisiae PJ69-4α; Gal4 AD and BD fusions; colony growth on SD/-Leu/-Trp/-His with 0.5 mM 3-AT, 30°C, 5 to 14 days
[2] = target: Irgb10 (β-lactamase fragment fusion for PCA) (mouse); assay: split reporter; Protein-fragment complementation assay (PCA): proteins fused to BlaN or BlaC fragments of TEM-1 β-lactamase, co-transfected in HEK293T cells, lysed 24 h later; nitrocefin hydrolysis in the supernatant read as absorbance at 495 nm

Binder | binding [1] | binding [2]
GBP5 (Yeast Two-Hybrid fusion) (protein, UniProt Q8CFB4 1-590) MAPEIHMPEPLCLIGSTEGHLVTNQEALKILSAITQPVVVVAIVGLYRTGKSYLMNKLAGKEKGFSVGSTVQSHTKGIWMWCVPHPQKPDHTLVLLDTEGLGDVEKDDKKNDTQIFALAILLSSTFVYNTMNKIDQGAIDLLHNVTELTDLLRTRNSSDSNQTEGEGPADMSFFPDLVWTLRDFFLDLQANGHAITSDEYLENSLKLKQGSDERTQTFNLPRLCIQKFFPVKKCFVFDAPALGSKLSQLPTLSNEELNSDFVQDLSEFCSHIFTQSKTKTLPGGIQVNGPRLESLVLTYVDAINSGALPSIENTVVTLARRENSAAVQKAIGHYDQLMSEKVQLPTETLQELLDLHRTCEREAIEIFRKHSFKDEGEFFQKELESLLSAKQDEICKKNADASAALCSTLLGSIFKPLEQEVAQEFYHKPGGHKLFLQRMEQLKANYRQQPGKGTQAEEVLQTYLNAKETVSRTILQTDQVLTDKEIQSKAEQERAEAARLEAQRLEAIRIQEEQRKAEMERQHQEQLRQIALEKARVAQEQQWILKQRAQEEADRIKAEQEAQLRALQQQLQHMREMNHHRRHHHDCVIS | binds | 
GBP5 (β-lactamase fragment fusion for PCA) (protein, UniProt Q8CFB4 1-590) MAPEIHMPEPLCLIGSTEGHLVTNQEALKILSAITQPVVVVAIVGLYRTGKSYLMNKLAGKEKGFSVGSTVQSHTKGIWMWCVPHPQKPDHTLVLLDTEGLGDVEKDDKKNDTQIFALAILLSSTFVYNTMNKIDQGAIDLLHNVTELTDLLRTRNSSDSNQTEGEGPADMSFFPDLVWTLRDFFLDLQANGHAITSDEYLENSLKLKQGSDERTQTFNLPRLCIQKFFPVKKCFVFDAPALGSKLSQLPTLSNEELNSDFVQDLSEFCSHIFTQSKTKTLPGGIQVNGPRLESLVLTYVDAINSGALPSIENTVVTLARRENSAAVQKAIGHYDQLMSEKVQLPTETLQELLDLHRTCEREAIEIFRKHSFKDEGEFFQKELESLLSAKQDEICKKNADASAALCSTLLGSIFKPLEQEVAQEFYHKPGGHKLFLQRMEQLKANYRQQPGKGTQAEEVLQTYLNAKETVSRTILQTDQVLTDKEIQSKAEQERAEAARLEAQRLEAIRIQEEQRKAEMERQHQEQLRQIALEKARVAQEQQWILKQRAQEEADRIKAEQEAQLRALQQQLQHMREMNHHRRHHHDCVIS |  | binds
GBP6 (Yeast Two-Hybrid fusion) (protein, UniProt A0A0G2JDV3 1-611) MTQPQMAPICLVENHNEQLSVNQEAIEILDKISQPVVVVAIVGLYRTGKSYLMNCLAGQNHGFPLGSTVQSQTKGIWMWCMPHPTKPEHTLVLLDTEGLGDVEKGDPKNDLWIFALSVLLSSTFIYNSMITINHQALEQLQYVTELTELIRAKSSPNPAGIKNSTEFVSFFPDFVWTVRDFMLELKLNGEDITSDDYLENALKLIPGDKPRMQASNSCRECIRLFFPNRKCFVFDRPTHDKELLQKLDSITEDQLDPKFQEVTKAFVSYIFTYAKIKTLKEGIKVTGNRLGILVTTYVNAINSGAVPCLDDAVTTLAQRENSVAVQKAADHYSEQMAQRLRLPTETLQELLDVHAACEKEAMAVFMEHSFKDENQQFLKKLVELIGENKELFLSKNEEASNKYCQEELDRLSKDFMENISTFFVPCGHKLYMDKREKIEHDYWQVPRKGVKASEVFQSFLQSQAFIESSILQADTALTAGEKAIAEERAQKVAAEKEQELLRQKQKEQQEYMEAQEKSHKENLEQLRRKLEQEREQDIKDHDMMLKKLMKDQKAFLEEGFKKKAEEMNKEIQQLRDVIKDKKRNTDRIKEALLNGFSTVLFHYLVRYLKHL | binds | 
GBP6 (β-lactamase fragment fusion for PCA) (protein, UniProt A0A0G2JDV3 1-611) MTQPQMAPICLVENHNEQLSVNQEAIEILDKISQPVVVVAIVGLYRTGKSYLMNCLAGQNHGFPLGSTVQSQTKGIWMWCMPHPTKPEHTLVLLDTEGLGDVEKGDPKNDLWIFALSVLLSSTFIYNSMITINHQALEQLQYVTELTELIRAKSSPNPAGIKNSTEFVSFFPDFVWTVRDFMLELKLNGEDITSDDYLENALKLIPGDKPRMQASNSCRECIRLFFPNRKCFVFDRPTHDKELLQKLDSITEDQLDPKFQEVTKAFVSYIFTYAKIKTLKEGIKVTGNRLGILVTTYVNAINSGAVPCLDDAVTTLAQRENSVAVQKAADHYSEQMAQRLRLPTETLQELLDVHAACEKEAMAVFMEHSFKDENQQFLKKLVELIGENKELFLSKNEEASNKYCQEELDRLSKDFMENISTFFVPCGHKLYMDKREKIEHDYWQVPRKGVKASEVFQSFLQSQAFIESSILQADTALTAGEKAIAEERAQKVAAEKEQELLRQKQKEQQEYMEAQEKSHKENLEQLRRKLEQEREQDIKDHDMMLKKLMKDQKAFLEEGFKKKAEEMNKEIQQLRDVIKDKKRNTDRIKEALLNGFSTVLFHYLVRYLKHL |  | binds
